Patent US20110201501A1, “Substituted Pyridines Having a Herbicidal Effect” (BASF SE, priority 2008, published 2011)
Some entries share one result that the patent states for a list of compounds.

Experiments:
AVEFA = assay: greenhouse post-emergence herbicidal test against AVEFA; format: in vivo, Avena fatua; details: application rate 3.0 kg/ha, scale 0 to 100
SETFA = assay: greenhouse post-emergence herbicidal test against SETFA; format: in vivo, Setaria faberi; details: application rate 3.0 kg/ha, scale 0 to 100

Row | SMILES | herbicidal activity against AVEFA (AVEFA) | herbicidal activity against SETFA (SETFA)
1 | O=c1[nH]c2cccnc2c(O)c1-c1ccccc1C(F)(F)F [I-1, 4-hydroxy-3-(2-trifluoromethylphenyl)-1H-[1,5]naphthyridin-2-one] | very good (a very good herbicidal activity is given at values of at least 85) | very good (a very good herbicidal activity is given at values of at least 85)
2 | Cn1c(=O)c(-c2ccccc2C(F)(F)F)c(O)c2ncccc21 [I-2, 4-hydroxy-1-methyl-3-(2-trifluoromethylphenyl)-1H-[1,5]naphthyridin-2-one] | very good (a very good herbicidal activity is given at values of at least 85) | –
